# Data published in the supplement of paper PMC8728848.
# This is one part of the list.
# Experiments:
# Experiment in all cases: glycan array binding signal (z-score within array); higher = stronger binding
# Settings in all cases: glycan notation: IUPAC condensed, linker removed
# [1] = target: Gal(a1-3)Gal(b1-4)GlcNAc(b1-2)Man
# How it was run: (§1)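 Glycan array data came from 3228 arrays in the Consortium for Functional Glycomics database, and only arrays with an available protein sequence were kept. Glycan names were put into IUPAC-condensed notation, and columns mapping to the same glycan were averaged. The binding signal is a within-array Z-score, averaged across arrays of one protein sequence run at different concentrations or buffers and across linkers. A negative Z-score can be read as non-binding.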
# [2] = target: Gal(a1-3)Gal(b1-4)GlcNAc(b1-2)Man(a1-3)[Gal(a1-3)Gal(b1-4)GlcNAc(b1-2)Man(a1-6)]Man(b1-4)GlcNAc(b1-4)GlcNAc
# How it was run: as §1
# [3] = target: Gal(a1-3)Gal(b1-4)GlcNAc(b1-3)GalNAc
# How it was run: as §1
# [4] = target: Gal(a1-3)Gal(b1-4)GlcNAc(b1-6)GalNAc
# How it was run: as §1
# [5] = target: Gal(a1-3)Gal(b1-4)[Fuc(a1-3)]GlcNAc
# How it was run: as §1
# [6] = target: Gal(a1-3)Gal(b1-4)[Fuc(a1-3)]GlcNAc(b1-2)Man(a1-3)[Gal(a1-3)Gal(b1-4)[Fuc(a1-3)]GlcNAc(b1-2)Man(a1-6)]Man(b1-4)GlcNAc(b1-4)GlcNAc
# How it was run: as §1
# [7] = target: Gal(a1-3)GalNAc
# How it was run: as §1
# [8] = target: Gal(a1-3)[Gal(a1-4)]Gal(b1-4)GlcNAc
# How it was run: as §1
# [9] = target: Gal(a1-4)Gal(b1-3)GlcNAc(b1-2)Man(a1-3)[Gal(a1-4)Gal(b1-3)GlcNAc(b1-2)Man(a1-6)]Man(b1-4)GlcNAc(b1-4)GlcNAc
# How it was run: as §1
# [10] = target: Gal(a1-4)Gal(b1-4)Glc
# How it was run: as §1
# [11] = target: Gal(a1-4)Gal(b1-4)GlcNAc
# How it was run: as §1
# [12] = target: Gal(a1-4)Gal(b1-4)GlcNAc(b1-2)Man(a1-3)[Gal(a1-4)Gal(b1-4)GlcNAc(b1-2)Man(a1-6)]Man(b1-4)GlcNAc(b1-4)GlcNAc
# How it was run: as §1
# [13] = target: Gal(a1-4)Gal(b1-4)GlcNAc(b1-3)Gal(b1-4)Glc
# How it was run: as §1
# [14] = target: Gal(a1-4)GlcNAc
# How it was run: as §1
# [15] = target: Gal(a1-6)Glc
# How it was run: as §1
# [16] = target: Gal(b1-2)Gal
# How it was run: as §1
# [17] = target: Gal(b1-3)Gal
# How it was run: as §1
# [18] = target: Gal(b1-3)Gal(b1-4)GlcNAc
# How it was run: as §1
# [19] = target: Gal(b1-3)GalNAc
# How it was run: as §1
# [20] = target: Gal(b1-3)GalNAc(a1-3)[Fuc(a1-2)]Gal(b1-4)Glc
# How it was run: as §1
# [21] = target: Gal(b1-3)GalNAc(a1-3)[Fuc(a1-2)]Gal(b1-4)GlcNAc
# How it was run: as §1
# [22] = target: Gal(b1-3)GalNAc(b1-3)Gal
# How it was run: as §1
# [23] = target: Gal(b1-3)GalNAc(b1-3)Gal(a1-4)Gal(b1-4)Glc
# How it was run: as §1
# [24] = target: Gal(b1-3)GalNAc(b1-4)Gal(b1-4)Glc
# How it was run: as §1
# [25] = target: Gal(b1-3)GalNAc(b1-4)[Neu5Ac(a2-3)]Gal(b1-4)Glc
# How it was run: as §1
# [26] = target: Gal(b1-3)GlcNAc
# How it was run: as §1
# [27] = target: Gal(b1-3)GlcNAc(a1-3)Gal(b1-4)GlcNAc
# How it was run: as §1
# [28] = target: Gal(b1-3)GlcNAc(a1-6)Gal(b1-4)GlcNAc
# How it was run: as §1
# [29] = target: Gal(b1-3)GlcNAc(b1-2)Man
# How it was run: as §1
# [30] = target: Gal(b1-3)GlcNAc(b1-2)Man(a1-3)[Gal(b1-3)GlcNAc(b1-2)Man(a1-6)]Man(b1-4)GlcNAc(b1-4)GlcNAc
# How it was run: as §1
# [31] = target: Gal(b1-3)GlcNAc(b1-2)Man(a1-3)[Gal(b1-3)GlcNAc(b1-2)Man(a1-6)]Man(b1-4)GlcNAc(b1-4)[Fuc(a1-6)]GlcNAc
# How it was run: as §1
# [32] = target: Gal(b1-3)GlcNAc(b1-2)Man(a1-3)[GlcNAc(b1-4)][Gal(b1-3)GlcNAc(b1-2)Man(a1-6)]Man(b1-4)GlcNAc(b1-4)GlcNAc
# How it was run: as §1
# [33] = target: Gal(b1-3)GlcNAc(b1-2)[Gal(b1-3)GlcNAc(b1-6)]Man(a1-6)[Gal(b1-3)GlcNAc(b1-2)Man(a1-3)]Man(b1-4)GlcNAc(b1-4)GlcNAc
# How it was run: as §1
# [34] = target: Gal(b1-3)GlcNAc(b1-3)Gal(b1-3)GlcNAc
# How it was run: as §1
# [35] = target: Gal(b1-3)GlcNAc(b1-3)Gal(b1-4)Glc
# How it was run: as §1
# [36] = target: Gal(b1-3)GlcNAc(b1-3)Gal(b1-4)GlcNAc
# How it was run: as §1
# [37] = target: Gal(b1-3)GlcNAc(b1-3)Gal(b1-4)GlcNAc(b1-2)Man(a1-3)[Gal(b1-3)GlcNAc(b1-3)Gal(b1-4)GlcNAc(b1-2)Man(a1-6)]Man(b1-4)GlcNAc(b1-4)GlcNAc
# How it was run: as §1
# [38] = target: Gal(b1-3)GlcNAc(b1-3)Gal(b1-4)GlcNAc(b1-2)[Gal(b1-3)GlcNAc(b1-3)Gal(b1-4)GlcNAc(b1-6)]Man(a1-6)[Gal(b1-3)GlcNAc(b1-3)Gal(b1-4)GlcNAc(b1-2)Man(a1-3)]Man(b1-4)GlcNAc(b1-4)[Fuc(a1-6)]GlcNAc
# How it was run: as §1
# [39] = target: Gal(b1-3)GlcNAc(b1-3)Gal(b1-4)GlcNAc(b1-3)Gal(b1-4)GlcNAc(b1-2)[Gal(b1-3)GlcNAc(b1-3)Gal(b1-4)GlcNAc(b1-3)Gal(b1-4)GlcNAc(b1-6)]Man(a1-6)[Gal(b1-3)GlcNAc(b1-3)Gal(b1-4)GlcNAc(b1-3)Gal(b1-4)GlcNAc(b1-2)Man(a1-3)]Man(b1-4)GlcNAc(b1-4)[Fuc(a1-6)]GlcNAc
# How it was run: as §1
# [40] = target: Gal(b1-3)GlcNAc(b1-3)Gal(b1-4)GlcNAc(b1-6)[Gal(b1-3)GlcNAc(b1-3)]Gal(b1-4)Glc
# How it was run: as §1
# [41] = target: Gal(b1-3)GlcNAc(b1-3)Gal(b1-4)[Fuc(a1-3)]GlcNAc
# How it was run: as §1
# [42] = target: Gal(b1-3)GlcNAc(b1-3)Gal(b1-4)[Fuc(a1-3)]GlcNAc(b1-6)[Gal(b1-3)GlcNAc(b1-3)]Gal(b1-4)Glc
# How it was run: as §1
# [43] = target: Gal(b1-3)GlcNAc(b1-3)GalNAc
# How it was run: as §1
# [44] = target: Gal(b1-3)GlcNAc(b1-6)Gal(b1-4)GlcNAc
# How it was run: as §1
# [45] = target: Gal(b1-3)GlcNAc(b1-6)GalNAc
# How it was run: as §1
binder,measurement,setting,value
"Clec18Av1 (Homo sapiens), A5D8T8 (protein) MLHPETSPGRGHLLAVLLALLGTAWAEVWPPQLQEQAPMAGALNRKESFLLLSLHNRLRSWVQPPAADMRRLDWSDSLAQLAQARAALCGTPTPSLASGLWRTLQVGWNMQLLPAGLVSFVEVVSLWFAEGQRYSHAAGECARNATCTHYTQLVWATSSQLGCGRHLCSAGQAAIEAFVCAYSPRGNWEVNGKTIVPYKKGAWCSLCTASVSGCFKAWDHAGGLCEVPRNPCRMSCQNHGRLNISTCHCHCPPGYTGRYCQVRCSLQCVHGRFREEECSCVCDIGYGGAQCATKVHFPFHTCDLRIDGDCFMVSSEADTYYRARMKCQRKGGVLAQIKSQKVQDILAFYLGRLETTNEVIDSDFETRNFWIGLTYKTAKDSFRWATGEHQAFTSFAFGQPDNHGFGNCVELQASAAFNWNDQRCKTRNRYICQFAQEHISRWGPGS",glycan array binding signal (z-score),[1],0.623
same,glycan array binding signal (z-score),[2],0.559
same,glycan array binding signal (z-score),[3],0.25
same,glycan array binding signal (z-score),[4],-0.214
same,glycan array binding signal (z-score),[5],2.81
same,glycan array binding signal (z-score),[6],-0.035
same,glycan array binding signal (z-score),[7],-0.534
same,glycan array binding signal (z-score),[8],0.638
same,glycan array binding signal (z-score),[9],1.03
same,glycan array binding signal (z-score),[10],-0.154
same,glycan array binding signal (z-score),[11],1.52
same,glycan array binding signal (z-score),[12],0.478
same,glycan array binding signal (z-score),[13],-0.559
same,glycan array binding signal (z-score),[14],-0.777
same,glycan array binding signal (z-score),[15],-0.747
same,glycan array binding signal (z-score),[16],0.03
same,glycan array binding signal (z-score),[17],-0.011
same,glycan array binding signal (z-score),[18],-0.266
same,glycan array binding signal (z-score),[19],-0.279
same,glycan array binding signal (z-score),[20],0.731
same,glycan array binding signal (z-score),[21],1.2
same,glycan array binding signal (z-score),[22],1.09
same,glycan array binding signal (z-score),[23],-0.54
same,glycan array binding signal (z-score),[24],-0.002
same,glycan array binding signal (z-score),[25],0.133
same,glycan array binding signal (z-score),[26],0.468
same,glycan array binding signal (z-score),[27],0.532
same,glycan array binding signal (z-score),[28],4.04
same,glycan array binding signal (z-score),[29],-0.432
same,glycan array binding signal (z-score),[30],0.576
same,glycan array binding signal (z-score),[31],-0.36
same,glycan array binding signal (z-score),[32],0.885
same,glycan array binding signal (z-score),[33],-0.727
same,glycan array binding signal (z-score),[34],0.533
same,glycan array binding signal (z-score),[35],-0.411
same,glycan array binding signal (z-score),[36],-0.579
same,glycan array binding signal (z-score),[37],-0.749
same,glycan array binding signal (z-score),[38],-0.106
same,glycan array binding signal (z-score),[39],0.466
same,glycan array binding signal (z-score),[40],0.939
same,glycan array binding signal (z-score),[41],-0.636
same,glycan array binding signal (z-score),[42],0.375
same,glycan array binding signal (z-score),[43],0.798
same,glycan array binding signal (z-score),[44],-0.721
same,glycan array binding signal (z-score),[45],-0.223
